# “And” between values parts separate entries of the source, which are not always exact repeats. Equal values may be shown once. The whole screen tested about 400,000 compounds, of which about 13,000 (3.2%) were called active. Inconclusive results, whose numbers are uncertain, are shown with a selection of clear calls. Calls come from the whole dose curve; as a rule, active = well fitted cell-killing curve with a large enough effect; inconclusive = small, poorly fitted or top-dose-only effect, or effect the other way; inactive = flat fitted curve, though single readings scatter. Potencies beside an inconclusive call are fits to weak or partial responses and may not hold up.
# Experiment: qHTS assay for MDR1-selective chemotherapeutics: Primary screen using the drug-selected MDR subline cells KB-V1; note: nearly all actives have a fitted effect of over 60% in size
# Conditions: KB-V1 MDR cells viability, CellTiter-Glo, 72 h; series mostly up to 46.1 µM
# In short: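 Cytotoxicity via CellTiter-Glo luminescence after 72 h compound exposure at 37 degrees C. Cells: drug-selected KB-V1 line, DMEM phenol-red free plus 10% FBS. Compounds tested at multiple concentrations; normalized data fitted to concentration-effect curves.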
# Potency is the fitted concentration of half-maximal effect.
row,Compound,Potency
1,O=P(N[C@@H](c1ccccc1)[C@@H]1C[C@H]1CO)(c1ccccc1)c1ccccc1,"inconclusive: 0.461 µM [cytotoxic, full curve, poor fit]"
2,CN(C)C(=O)O/N=C(\N)COc1ccc(C(C)(C)C)cc1,"inconclusive: 23.1 µM [cytotoxic, single point]"
3,CCOC(=O)[C@]12Cc3c(cc(OC)c(OC)c3OC)[C@H]1N(C(C)C)C(=O)c1ccccc12,active: 8.2 µM
4,CCOc1ccc(CN(CCc2ccc3c(c2)OCO3)Cc2cccc(OC)c2)cc1,"inconclusive: 3.66 µM [cytotoxic, partial curve, poor fit]"
5,COC(=O)C1=C(c2ccc(F)cc2OCc2ccccc2)C[C@@H]2CC[C@H]1N2C,"inconclusive: 0.92 µM [cytotoxic, full curve, poor fit]"
6,CCOC(=O)c1c(C)n(Cc2ccccc2)c2ccc(OCC(O)Cn3nc(C)nc3C)cc12 (stereo unspecified),inactive
7,C[N+]1=C(/C=C/Nc2ccccc2)C(C)(C)c2ccccc21,active: 20.6 µM
8,CC1CCC(N(C)C2CCN(C)CC2)CC1 (stereo unspecified),inactive
9,COC(=O)C1=C(c2cccc(OCc3ccccc3)c2)C[C@@H]2CC[C@H]1N2C(=O)NCCOc1ccc(OC)cc1,"inconclusive: 0.731 µM [cytotoxic, full curve, poor fit]"
10,CC(C)c1oc(=O)cc2c1[C@@H](O)[C@H]1OC(=O)[C@@]3(C)CC[C@@H](O)[C@@]2(C)C13 (stereo partly specified),inactive
11,O=C(O)c1cc[c]([Sb](=[O])([OH])[OH])cc1[N+](=O)[O-],inactive
12,CCOC(=O)[C@]12Cc3cc4c(cc3[C@H]1N(Cc1ccccc1)C(=O)c1ccccc12)OCO4,"inconclusive: 9.2 µM [cytotoxic, partial curve, poor fit] and inconclusive: 23.1 µM [cytotoxic, partial curve, poor fit]"
13,CN(C)c1ccc(/C=C/C=C2/C(=O)NC(=O)N(c3ccccc3)C2=O)cc1,"inconclusive: 20.6 µM [cytotoxic, single point]"
14,O=C(COc1ccc(Br)cc1)N1CCN(Cc2c[nH]c3ccccc23)CC1,active: 18.4 µM
15,Cc1ccc(Cl)cc1NC(=O)N(Cc1ccc2c(c1)OCO2)C1CCN(Cc2ccccc2)CC1,"inconclusive: 13 µM [cytotoxic, partial curve, poor fit]"
16,COc1ccc(-c2nc3ccccc3c(=O)n2-c2cccnc2)cc1,active: 13 µM
17,COc1ccc(-n2nnnc2C(c2cccc3ccccc23)N2CCC3(CC2)C(=O)NCN3c2ccccc2)cc1 (stereo unspecified),inactive
18,Cn1c(O)c(C=NCCCNC2CCCCC2)c(=O)n(C)c1=O,"inconclusive: 29.1 µM [rising, partial curve, poor fit]"
19,CCCCn1c(O)c(C(=O)/C=C/c2ccc3c(c2)OCO3)c(=O)[nH]c1=O,"inconclusive: 0.731 µM [cytotoxic, full curve, poor fit]"
20,CC(C)NC(=O)c1ccc(N2CC3CC(C2)c2cccc(=O)n2C3)c([N+](=O)[O-])c1 (stereo unspecified),inactive
21,CCC(=NCCN1CCOCC1)c1c(O)n(C2CCCCC2)c(=O)[nH]c1=O,"inconclusive: 16.4 µM [cytotoxic, single point]"
22,CN1CC2CN(Cc3ccccc3)S(=O)(=O)C2C1 (stereo unspecified),inactive

row,Compound,Potency
1,Cc1nn(-c2ccccc2)c(Cl)c1C1C(C#N)=C(N)Oc2c1c(=O)oc1ccccc21 (stereo unspecified),"inconclusive: 23.1 µM [cytotoxic, single point]"
2,N#Cc1ccc(NC(=S)N2Cc3ccccc3-n3nncc3C2)cc1,inactive
3,Cn1c(=O)n(C)c2cc(CNCCc3ccc(F)cc3)ccc21,inactive
4,CS(=O)(=O)c1ccc(C2=C(CNC(=O)c3cccnc3)[C@H]3CC[C@@H](C2)N3Cc2ccco2)cc1,inactive
5,CC(=O)O[C@H]1C(=O)[C@@]2(C)C([C@H](OC(=O)c3ccccc3)[C@]3(O)C[C@H](O)C(C)=C1C3(C)C)[C@]1(OC(C)=O)CO[C@@H]1C[C@H]2O (stereo partly specified),"inconclusive: 29.1 µM [rising, single point]"
6,COC(=O)C(O)(c1ccc(NC(=O)NC2CCCCC2)cc1)C(F)(F)F (stereo unspecified),inactive
7,c1ccc(C(c2ccccc2)c2cccnc2)cc1,inactive
8,CC(C)CCn1c(N)c(C(=O)OCC2CCCO2)c2nc3ccccc3nc21 (stereo unspecified),"inconclusive: 29.1 µM [cytotoxic, single point]"
9,Cc1ccccc1-n1c(O)c(/C=N/NC(=O)c2ccncc2)c(=O)[nH]c1=O,"inconclusive: 29.1 µM [rising, single point]"
10,CN1CSC(=S)N(C)C1,"inconclusive: 29.1 µM [cytotoxic, single point]"
11,COc1ccc(C(=O)C2CCCN(Cc3cnc(C)s3)C2)cc1OC (stereo unspecified),"inconclusive: 23.1 µM [cytotoxic, single point]"
12,CC(C)c1ccc(OCC(=O)N2CCCN(C)CC2)cc1,inactive
13,COC(=O)c1ccc(NC(=O)NC(=O)Oc2ccccc2)cc1,inactive
14,CC(=NCCC1=CCCCC1)c1c(O)n(-c2ccccc2)c(=O)[nH]c1=O,"inconclusive: 14.6 µM [cytotoxic, partial curve, poor fit]"
15,CCSc1nnc([C@@H](N)Cc2c[nH]c3ccccc23)o1,"inconclusive: 29.1 µM [cytotoxic, partial curve, poor fit]"
16,CCOC(=O)[C@]12Cc3ccccc3[C@H]1N(C1CCCCC1)C(=O)c1cc(OC)ccc12,"inconclusive: 18.4 µM [cytotoxic, partial curve, poor fit]"
17,COc1ccc(N/N=C/c2c(O)n(-c3ccc(C)c(C)c3)c(=O)[nH]c2=O)cc1,"inconclusive: 23.1 µM [cytotoxic, single point]"
18,CCOC(=O)[C@]12Cc3cc(OC)ccc3[C@H]1N(C(C)C)C(=O)c1ccccc12,"inconclusive: 25.9 µM [cytotoxic, partial curve, poor fit]"
19,CCOC(=O)CC1c2ccccc2-n2nncc2CN1Cc1ccc(OC)cc1 (stereo unspecified),"inconclusive: 32.6 µM [cytotoxic, single point]"
20,O=C(O)c1cc[c]([Hg][Cl])cc1,inactive
21,CC(C)CC(C)N (stereo unspecified),inactive
22,CC(=O)Nc1cc(C(=O)N2CCC3(CC2)OCCO3)ccc1S(=O)(=O)c1ccc(C)cc1,inactive

row,Compound,Potency
1,C=CCn1c(O)c(C(C)=NCCC(c2ccccc2)c2ccccc2)c(=O)[nH]c1=O,"inconclusive: 18.4 µM [cytotoxic, partial curve, poor fit]"
2,O=Cc1c(C(=O)O)n(Cc2ccccc2Cl)c2ccccc12,inactive
3,Cc1ccc(N(C)C(=O)Oc2ccc(C(=O)c3ccc(Cl)cc3)cc2)cc1,"inconclusive: 10.3 µM [cytotoxic, partial curve, poor fit]"
4,C/C=C(\C)C(=O)N[C@@H](c1ccccc1)[C@@H](O)C(=O)O[C@H]1C[C@@]2(O)[C@@H](OC(=O)c3ccccc3)C3[C@](C)(C(=O)[C@H](OC(C)=O)C(=C1C)C2(C)C)[C@H](O)C[C@H]1OC[C@@]31OC(C)=O (stereo partly specified),"inconclusive: 25.9 µM [cytotoxic, single point]"
5,CC(=O)O/C(=C1\CC2C3CC=C4CC(OC(C)=O)CCC4(C)C3CCC2(C)C1=O)C(F)(F)F (stereo unspecified),active: 10.3 µM
6,O=C(COC(=O)Cc1ccccc1)NCCNC(=O)COC(=O)Cc1ccccc1,inactive
7,CCCCCn1c(=O)c(C(=O)NCc2ccccn2)c(O)c2ccccc21,active: 14.6 µM
8,CCOC(=O)Cn1cc(C=C2C(=O)N(C)C(=O)N(C)C2=O)c2ccccc21,inactive
9,Cc1ccc(Cn2cccc(C(=O)Nc3ccc4c(c3)OCO4)c2=O)cc1,"inconclusive: 25.9 µM [cytotoxic, single point]"
10,COc1ccc(CCN(C)Cc2c(F)cccc2F)cc1OC,active: 11.6 µM
11,O=S(=O)(c1ccc(Cl)cc1)N1Cc2ccccc2-n2nncc2C1,inactive
12,COc1cccc(OC)c1C1=NCC(=O)Nc2c1oc1ccc(Br)cc21,"inconclusive: 0.58 µM [cytotoxic, full curve, poor fit]"
13,O=C1NC(=O)[C@]2(Cc3ccccc3N3CCN(c4ccccc4)CC32)C(=O)N1Cc1ccccc1 (stereo partly specified),inactive
14,CCOC(=O)C(O)(c1ccc(N(C)C(=O)c2ccc(Cl)c(Cl)c2)cc1)C(F)(F)F (stereo unspecified),"inconclusive: 23.1 µM [cytotoxic, partial curve, poor fit]"
15,OC1C2CN3CN(C2)CC1(c1ccccc1)C3 (stereo unspecified),"inconclusive: 0.0326 µM [rising, full curve]"
16,CCOC(=O)[C@]12Cc3ccccc3[C@H]1N(C)C(=O)c1cc(OC)ccc12,active: 7.31 µM
17,CC(C)(C)c1nc(N2CCN(C(=O)c3ccco3)CC2)c2nnn(Cc3ccccc3Cl)c2n1,active: 11.6 µM
18,O=C1NC(=S)N(c2ccccc2F)C(=O)/C1=C\c1cccs1,"inconclusive: 29.1 µM [cytotoxic, single point]"
19,CC12CC[C@H]3[C@@H](CCC4(O)C[C@H](O)CCC34/C=N/NC(=O)c3ccccc3[N+](=O)[O-])C1(O)CCC2C1=CC(=O)OC1 (stereo partly specified),"inconclusive: 23.1 µM [cytotoxic, single point]"
20,COC(=O)C1=C(c2ccc(-c3ccccc3)c(F)c2)C[C@@H]2CC[C@H]1N2C(=O)N1CCC(C)CC1,"inconclusive: 18.4 µM [cytotoxic, single point]"
21,Cc1cccc(Cn2cccc(C(=O)Nc3ccc4c(c3)OCCO4)c2=O)c1,"inconclusive: 16.4 µM [cytotoxic, partial curve]"
22,O=C(Nc1ccc2ccccc2c1)c1nn(C23CC4CC(CC(C4)C2)C3)cc1Br,inactive
